Laboratory results: PubChem BioAssay AID1224829 (NIAID, 2016)
The whole screen tested about 3,800 reagents; this is an unselected part. 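Calls cover raised and lowered translocation; gene median uses one vendor's three siRNAs; qiagen siRNAs acted more weakly than ambion siRNAs.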 Entries without a mark were called inactive. The numbers tell different reagents against one gene apart. Not all columns of the deposit are shown.

Aim: 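Genes needed for LPS-driven NF-kappaB p65 nuclear entry in mouse macrophages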 (follow-up of hits)
System: mouse RAW264.7 G9 macrophage reporter cells
Reagent: single siRNA against mouse genes, 100 nM
Timing: 2 days of siRNA knock-down, then 40 min of LPS before fixing
Challenge: LPS (Salmonella minnesota R595) at 10 ng/ml
Read-out: 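Imaging of GFP-p65 after 40 min of LPS; nuclear over perinuclear ring intensity ratio, scaled to plate median and non-targeting control wells, given as z-score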
Reading the numbers: p65 translocation z-score: higher = more nuclear NF-kappaB p65 after LPS
Active means: 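An siRNA is called active when the mean z-score of its two replicates is above 2 or below -2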
Meaning of the calls: active = changed p65 translocation (either direction); inactive = no clear change

Trim12a #1, siRNA vendor or control pool ambion single siRNA
- p65 translocation z-score, replicate mean: -2.15 (active)

Trim12a #2, siRNA vendor or control pool ambion single siRNA
- p65 translocation z-score, replicate mean: -5.14 (active)

Trim12a #3, siRNA vendor or control pool ambion single siRNA
- p65 translocation z-score, replicate mean: -3.96 (active)

Trim12a #4, siRNA vendor or control pool qiagen single siRNA
- p65 translocation z-score, replicate mean: 1.39

Trim12a #5, siRNA vendor or control pool qiagen single siRNA
- p65 translocation z-score, replicate mean: 0.674

Trim12a #6, siRNA vendor or control pool qiagen single siRNA
- p65 translocation z-score, replicate mean: -0.703

Agbl5 #1, siRNA vendor or control pool ambion single siRNA
- p65 translocation z-score, replicate mean: 2.65 (active)

Agbl5 #2, siRNA vendor or control pool ambion single siRNA
- p65 translocation z-score, replicate mean: -2.52 (active)

Agbl5 #3, siRNA vendor or control pool ambion single siRNA
- p65 translocation z-score, replicate mean: -2.62 (active)

Agbl5 #4, siRNA vendor or control pool qiagen single siRNA
- p65 translocation z-score, replicate mean: -0.409

Agbl5 #5, siRNA vendor or control pool qiagen single siRNA
- p65 translocation z-score, replicate mean: -3.21 (active)

Agbl5 #6, siRNA vendor or control pool qiagen single siRNA
- p65 translocation z-score, replicate mean: -5.68 (active)

Rag1 #1, siRNA vendor or control pool ambion single siRNA
- p65 translocation z-score, replicate mean: 1.99

Rag1 #2, siRNA vendor or control pool ambion single siRNA
- p65 translocation z-score, replicate mean: 1.78

Rag1 #3, siRNA vendor or control pool ambion single siRNA
- p65 translocation z-score, replicate mean: -1.61

Rag1 #4, siRNA vendor or control pool qiagen single siRNA
- p65 translocation z-score, replicate mean: 2.31 (active)

Rag1 #5, siRNA vendor or control pool qiagen single siRNA
- p65 translocation z-score, replicate mean: 2.1 (active)

Rag1 #6, siRNA vendor or control pool qiagen single siRNA
- p65 translocation z-score, replicate mean: 0.761

Eif4ebp1 #1, siRNA vendor or control pool ambion single siRNA
- p65 translocation z-score, replicate mean: -0.126

Eif4ebp1 #2, siRNA vendor or control pool ambion single siRNA
- p65 translocation z-score, replicate mean: -0.425

Eif4ebp1 #3, siRNA vendor or control pool ambion single siRNA
- p65 translocation z-score, replicate mean: -2.01 (active)

Eif4ebp1 #4, siRNA vendor or control pool qiagen single siRNA
- p65 translocation z-score, replicate mean: -0.539

Eif4ebp1 #5, siRNA vendor or control pool qiagen single siRNA
- p65 translocation z-score, replicate mean: 0.8

Eif4ebp1 #6, siRNA vendor or control pool qiagen single siRNA
- p65 translocation z-score, replicate mean: -3.93 (active)

Kif23 #1, siRNA vendor or control pool ambion single siRNA
- p65 translocation z-score, replicate mean: -1.05

Kif23 #2, siRNA vendor or control pool ambion single siRNA
- p65 translocation z-score, replicate mean: -1.51

Kif23 #3, siRNA vendor or control pool ambion single siRNA
- p65 translocation z-score, replicate mean: -6.92 (active)

Kif23 #4, siRNA vendor or control pool qiagen single siRNA
- p65 translocation z-score, replicate mean: -6.73 (active)

Kif23 #5, siRNA vendor or control pool qiagen single siRNA
- p65 translocation z-score, replicate mean: -0.682

Kif23 #6, siRNA vendor or control pool qiagen single siRNA
- p65 translocation z-score, replicate mean: -1.59

2 successive records already listed, for reference:
Eif4ebp1 #3, siRNA vendor or control pool ambion single siRNA
- p65 translocation z-score, replicate mean: -2.01 (active)

Eif4ebp1 #4, siRNA vendor or control pool qiagen single siRNA
- p65 translocation z-score, replicate mean: -0.539
